The target in experiment [1] is human nicastrin TM domain and C-terminus (residues A664-Y709) (human) (UniProt Q92542). Kind of experiment: NMR (1H-15N HSQC spectrum and 15N relaxation analysis); 0.8 mM nicastrin in 200 mM DPC micelles, 20 mM sodium phosphate pH 6.5, 1 mM DTT, 313 K; both purified.
For experiment [2] the target is unchanged. Kind of experiment: NMR (1H-15N HSQC spectrum and 15N relaxation analysis); 0.8 mM nicastrin in 100 mM SDS micelles, 20 mM sodium phosphate pH 6.5, 1 mM DTT, 313 K; both purified.

Amino acid sequences for entries named in this document (tags omitted). Residues count along the entry.
UniProt Q92542, residues 664-709: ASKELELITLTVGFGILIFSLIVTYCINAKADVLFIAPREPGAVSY

These are yes or no findings as the source states them, for the method shown.

For the substance “human nicastrin TM domain and C-terminus (residues A664-Y709) (from UniProt Q92542 664-709) (domain or fragment)”, the binding entry in experiment [1] and in experiment [2] was “no binding (tested: 0.8 mM)” throughout.

For the origin of these results see article PMC4726005.
